Measured values taken from US20260055194A1.
These are yes or no findings as the source states them, for the method shown. Some results given as binding are weak or reduced against the parent protein; the word gives no strength.

Protein sequences, listed by entry. Tags and fused reporters are not part of them. Residues count along the entry.
UniProt P11717, residues 41-1365: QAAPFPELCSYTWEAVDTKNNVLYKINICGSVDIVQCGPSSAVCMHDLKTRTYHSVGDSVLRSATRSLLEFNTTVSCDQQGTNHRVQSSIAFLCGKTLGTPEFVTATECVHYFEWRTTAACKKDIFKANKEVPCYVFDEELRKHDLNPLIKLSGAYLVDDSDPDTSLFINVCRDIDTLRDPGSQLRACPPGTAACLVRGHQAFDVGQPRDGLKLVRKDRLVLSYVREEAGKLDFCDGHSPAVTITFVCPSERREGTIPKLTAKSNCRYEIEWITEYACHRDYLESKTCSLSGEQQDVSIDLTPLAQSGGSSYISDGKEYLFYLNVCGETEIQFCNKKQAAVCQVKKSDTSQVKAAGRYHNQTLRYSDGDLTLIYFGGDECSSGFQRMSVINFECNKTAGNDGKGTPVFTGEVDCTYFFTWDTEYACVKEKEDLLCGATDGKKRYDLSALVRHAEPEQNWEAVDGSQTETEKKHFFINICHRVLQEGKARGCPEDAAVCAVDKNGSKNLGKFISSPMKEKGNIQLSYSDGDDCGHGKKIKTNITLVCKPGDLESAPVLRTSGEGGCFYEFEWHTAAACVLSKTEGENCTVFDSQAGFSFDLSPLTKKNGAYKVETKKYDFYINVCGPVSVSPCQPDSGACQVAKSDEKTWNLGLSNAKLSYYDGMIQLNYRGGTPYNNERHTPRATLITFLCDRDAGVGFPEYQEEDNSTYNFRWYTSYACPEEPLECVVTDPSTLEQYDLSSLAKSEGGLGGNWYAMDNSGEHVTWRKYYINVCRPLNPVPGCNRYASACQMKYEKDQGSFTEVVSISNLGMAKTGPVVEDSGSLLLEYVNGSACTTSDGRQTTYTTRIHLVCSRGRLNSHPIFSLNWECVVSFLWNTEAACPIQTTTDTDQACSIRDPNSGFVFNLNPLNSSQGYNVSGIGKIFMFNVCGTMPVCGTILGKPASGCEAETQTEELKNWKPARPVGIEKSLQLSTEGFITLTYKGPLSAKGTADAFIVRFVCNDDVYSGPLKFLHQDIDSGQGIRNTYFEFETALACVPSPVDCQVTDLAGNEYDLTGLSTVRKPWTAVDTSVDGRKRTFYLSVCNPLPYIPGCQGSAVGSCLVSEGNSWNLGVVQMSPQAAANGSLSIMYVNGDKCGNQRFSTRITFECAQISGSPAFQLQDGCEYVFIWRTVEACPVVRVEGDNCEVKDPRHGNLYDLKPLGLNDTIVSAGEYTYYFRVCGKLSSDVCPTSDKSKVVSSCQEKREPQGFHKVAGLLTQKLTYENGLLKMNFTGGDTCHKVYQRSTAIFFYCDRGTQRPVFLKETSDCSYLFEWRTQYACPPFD

How the values were obtained:
[1] = biological target: purified recombinant CI-M6PR (domains 1-9) protein (human) (UniProt P11717); experiment: ELISA on human M6PR, Abs 450nm, antibody about 0.0005-1 ug/mL
[2] = biological target: purified recombinant CI-M6PR (domains 1-9) protein (human) (UniProt P11717); experiment: BLI, association at pH 7.4, Koff at pH 6.0 or 5.0 divided by Koff at pH 7.4
[3] = biological target: purified recombinant CI-M6PR (domains 1-9) protein (human) (UniProt P11717); experiment: BLI, antibody on anti-mouse IgG Fc sensor, His-tagged CI-M6PR construct in solution (domain mapping)
[4] = biological target: purified recombinant CI-M6PR (domains 1-9) protein (human) (UniProt P11717); experiment: BLI domain mapping with chimeric human/mouse CI-M6PR
[5] = biological target: purified recombinant CI-M6PR (domains 1-9) protein (human) (UniProt P11717); experiment: BLI; Koff at pH 5.0 and pH 6.0 divided by Koff at pH 7.4
[6] = biological target: purified recombinant CI-M6PR (domains 1-9) protein (human) (UniProt P11717); experiment: BLI; association at pH 7.4, dissociation at pH 7.4, 6.0 or 5.0 in citric acid buffer
[7] = biological target: purified recombinant CI-M6PR (domains 1-9) protein (human) (UniProt P11717); experiment: BLI, antibody on anti-mouse IgG Fc sensor, human CI-M6PR in citric acid buffer, association at pH 7.4, dissociation at pH 7.4, 6.0 or 5.0

binding [1] | binding [2] | binding [3] | binding [4] | binding [5] | binding [6] | binding [7] | Binder
binds |  |  |  |  |  |  | 12D5 (antibody, V domains shown) VH: QVQLQQPGAELVKPGASVKLSCKASGYTFTNYWMHWVKQRPGQGLEWIGMIHPNSGSTNYNEKFKSKATLTVDKSSSTAYMQLSSLTSEDSAVYYCARPHGYPFGYWGQGTTLTVSS VL: ENVLTQSPAIMSASLGEKVTMSCRASSSVNYMYWYQQKSDASPKLWIYYTSNLAPGVPARFSGSGSGNSYSLTISSMEGEDAATYYCQQFTSSPYTFGGGTKLEIK
binds | binds | binds | binds |  |  |  | 03C7 (antibody, V domains shown) VH: QVQLQQSGPELVKPGASVKISCKASGYSFTSYYIHWVKQRPGQGLEWIGWIYPGSGNTKYNEKFKGKATLTADTSSSTAYMQLSSLTSEDSAVYYCARMGSSYWYFDVWGTGTTVTVSS VL: ENVLTQSPAIMAASLGQKVTMTCSASSSVSSSYLHWYQQKSGASPKPLIHRTSNLASGVPARFSGSGSGTSYSLTISSVEAEDDATYYCQQWSGYPLTFGAGTKLELK
binds | binds | binds | binds |  |  |  | 11B12 (antibody, V domains shown) VH: QVQLQQSGPELVKPGASVKISCKASGYSFTSYYIHWVKQRPGQGLEWIGWIYPGSGNTKYNEKFKGKATLTADTSSSTAYMQLSSLTSEDSAVYYCARGNWHWYFDVWGTGTTVTVSS VL: EIVLTQSPALMAASPGEKVTITCSVSSSISSSNLHWYQQKSETSPKPWIYGTSNLASGVPVRFSGSGSGTSYSLTISSMEAEDAATYYCQQWSSYPLTFGAGTKLELK
binds | binds | binds | binds |  | binds | binds | 18G4 (antibody, V domains shown) VH: EVKLMESGGGLVQPGASLRLSCAASGFTFTDYYMSWVRQPPGKAPEWLALIRNKANGYTTEYNASVKGRFTISRDNSQNILYLQMNTLRTEDSATYYCVRGGFAYWGQGTLVTVSA VL: QAVVIQESALTTSPGETVTLTCRSSTGAVTTSHYAIWVQEKPDHLFTGLIGGTNNRVPGVPARFSGSLIADKAALTITGAQTEDEAIYFCALWYTNQFIFGSGTKVTVL
binds | binds | binds | binds | binds | binds | binds | 21D5 (antibody, V domains shown) VH: QVQLKQSGPGLVQPSQSLSITCTVSGFSLTRYGVHWVRQSPGKGLEWLGVIWRGGSTDYNAAFMSRLSITKDNSKSQVFFKMNSLQADDTAIYYCAKEGTGILDSWGQGTTLTVSS VL: DIVLTQSPASLAVSLGQRATISCRASKSVSTSGYSYMHWYQQKPGQPPTLLIYLASNLESGVPARFSGSGSGTDFTLNIHPVEEEDAATYYCQHSRELPYTFGGGTKLEIK

Continued, binder first:

Binder | binding [1] | binding [2] | binding [3] | binding [4] | binding [5] | binding [6] | binding [7]
45A12 (antibody, V domains shown) VH: QVQLQQSGAELMKPGASVKISCKATGYTFSTYWIEWVKQRPGHGLEWIGEILPGSGSTNYNEKFKGKATFTADASSNTAYMQLSSLTSEDSAVYYCARDGGAMDYWGQGTSVTVSS VL: NIMMTQSPSSLAVSAGEKVTMSCKSSQRVLYSSNQKNYLAWYQQKPGQSPKLLIYWASTRESGVPDRFTGSGSGTDFTLTISTVQPEDLAVYYCHQYLSSRTFGGGTKLEIK | binds | binds |  |  |  |  | 
10H5-2 (antibody, V domains shown) VH: EVQLQQSGAELVRPGASVKLSCTASGFNIKDDYMHWVKQRPEQGLEWIGWIDPENGDTEYASKFQGKATITADTSSNTAYLQLSSLTSEDTAVYYCTTQYGPLYFDYWGQGTTLTVSS VL: QAVVTQESALTTSPGETVTLTCRSSTGAVTTSKYANWVQEKPDHLFTGVIGGTNNRAPGVPARFSGSLIGDKAALTITGAQTEDEAIYFCALWYSNHWVFGGGTKLTVL | binds |  |  |  |  |  | 
17F11 (antibody, V domains shown) VH: EVQLQQSGPELVKPGASVKMSCKASGYTFTDYNMHWVKQSHGKSLEWIGYINPNNGGTNYNQKFQGKATLTVNKSSRTAYMELRSLTSEDSAVYYCVRFYYGSRYYAMDYWGQGTSVTVSS VL: DIVMTQSPATLSVTPGDRVSLSCRASQSISDYLHWYQQKSHESPRLLIKYASQSISGIPSRFSGSGSGSDFTLSINSVEPEDVGVYYCQNGHSFPYTFGGGTKLEIK | binds | binds | binds | binds | binds | binds | binds
53B11 (antibody, V domains shown) VH: EVQLQQSGPELVKPGTSMKISCKASGYSFTDYTVNWVKQSHGKNLEWIGLINPYNGGTSYNQKFKGKATLTVDKSSSTAYMELLSLTSEDSAVYYCARWGYYYATSYYFAMDYWGQGTSVTVSS VL: DIQMNQSPSSLSASLGDTITITCHASQNINVWLSWYQQKPGNIPKLLIYKASNLHTGVPSRFSGSGSGTGFTLTISSLQPEDIATYYCQQGQSYPWTFGGGTKLEIK | binds | binds | binds | binds |  |  | 
08D8 (antibody, V domains shown) VH: QVQLQQPGAELVKPGASVKLSCKASGYTFTSYWMQWVKQRPGQGLEWIGEIDPSDSYTNYNQKFKGKATLTVDTSSSTAYMQLSSLTSEDSAVYYCARGDYYGSSSWFAYWGQGTLVTVSA VL: DIVMTQAAPSVPVTPGESVSISCRSSKSLLHSNGNTYLYWFLQRPGQSPQLLIYRMSNLASGVPDRFSGSGSGTAFTLRISRVEAEDVGVYYCMQHLEYPFTFGAGTKLELK | binds |  | binds |  |  |  | 
16H4 (antibody, V domains shown) VH: QVQLKQSGPGLVQPSQSLSITCTASGFSLTSYGVHWVRQSPGKGLEWLGVIWSGGSTDYSAAFISRLSISKDSSKSQVFFKMNSLQADDTAIYYCARNLPITSYDPSSFYAMDYWGQGTSVTVSS VL: DIQMTQTTSSLSASLGDRVTISCSASQGISNYLNWYQQKPDGTVKLLIYYTSSLHSGVPSRFSGSGSGTDYSLTISNLEPEDIATYYCQQYSKLPFTFGSGTKLEIK | binds |  |  |  |  |  | 
06D1 (antibody, V domains shown) VH: EVQLQQSGAELVRPGASVKLSCTASGFNIKDDYMHWVKQRPEQGLEWIGWIDPENGDTEYASKFQGKATITADTSSNTAYLQLSSLTSEDTAVYYCTTVAPGYYAMDYWGQGTSVTVSS VL: ENVLTQSPAIMSASPGEKVTMTCRASSSVSSSYLHWYQQKSGASPKLWIYSTSNLASGVPARFSGSGSGTSYSLTISSVEAEDAATYYCQQYSGFTFGSGTKLEIK | binds | binds | binds | binds |  |  | 
